Experimental data reported in patent US20110038790A1.
No constants are given. Whether binding was seen depends on the method and setting. Some entries that bind do so weakly or less than the wild type.

How the values were obtained:
Assay in all cases: competition ELISA
[1] = target: murine monoclonal antibody 2A4
[2] = target: murine monoclonal antibody 8G9
[3] = target: murine monoclonal antibody 7D8

Row | binding [1] | binding [2] | binding [3] | Binder
1 | binds | binds | binds | human AA amyloid (renal AA amyloid extract or tissue deposits) (protein, UniProt P0DJI8 19-94, looked up) RSFFSFLGEAFDGARDMWRAYSDMREANYIGSDKYFHARGNYDAAKRGPGGAWAAEVITDARENIQRFFGHGAEDS
2 | binds | binds | binds | murine AA amyloid (AA fibrils, amyloid enhancing factor extract or tissue deposits) (protein, mouse, UniProt P05367 20-94, looked up) GFFSFIGEAFQGAGDMWRAYTDMKEAGWKDGDKYFHARGNYDAAQRGPGGVWAAEKISDARESFQEFFGRGHEDT
